In patent US8518938B2, “c-MET protein kinase inhibitors” (Vertex Pharmaceuticals Incorporated, priority 2008, dated 2013):
Some of these results come from one statement about several compounds together.

By UniProt entry, the sequences of proteins in these tests, tags left out. Residues count along the entry.
UniProt P08581, 25-1390: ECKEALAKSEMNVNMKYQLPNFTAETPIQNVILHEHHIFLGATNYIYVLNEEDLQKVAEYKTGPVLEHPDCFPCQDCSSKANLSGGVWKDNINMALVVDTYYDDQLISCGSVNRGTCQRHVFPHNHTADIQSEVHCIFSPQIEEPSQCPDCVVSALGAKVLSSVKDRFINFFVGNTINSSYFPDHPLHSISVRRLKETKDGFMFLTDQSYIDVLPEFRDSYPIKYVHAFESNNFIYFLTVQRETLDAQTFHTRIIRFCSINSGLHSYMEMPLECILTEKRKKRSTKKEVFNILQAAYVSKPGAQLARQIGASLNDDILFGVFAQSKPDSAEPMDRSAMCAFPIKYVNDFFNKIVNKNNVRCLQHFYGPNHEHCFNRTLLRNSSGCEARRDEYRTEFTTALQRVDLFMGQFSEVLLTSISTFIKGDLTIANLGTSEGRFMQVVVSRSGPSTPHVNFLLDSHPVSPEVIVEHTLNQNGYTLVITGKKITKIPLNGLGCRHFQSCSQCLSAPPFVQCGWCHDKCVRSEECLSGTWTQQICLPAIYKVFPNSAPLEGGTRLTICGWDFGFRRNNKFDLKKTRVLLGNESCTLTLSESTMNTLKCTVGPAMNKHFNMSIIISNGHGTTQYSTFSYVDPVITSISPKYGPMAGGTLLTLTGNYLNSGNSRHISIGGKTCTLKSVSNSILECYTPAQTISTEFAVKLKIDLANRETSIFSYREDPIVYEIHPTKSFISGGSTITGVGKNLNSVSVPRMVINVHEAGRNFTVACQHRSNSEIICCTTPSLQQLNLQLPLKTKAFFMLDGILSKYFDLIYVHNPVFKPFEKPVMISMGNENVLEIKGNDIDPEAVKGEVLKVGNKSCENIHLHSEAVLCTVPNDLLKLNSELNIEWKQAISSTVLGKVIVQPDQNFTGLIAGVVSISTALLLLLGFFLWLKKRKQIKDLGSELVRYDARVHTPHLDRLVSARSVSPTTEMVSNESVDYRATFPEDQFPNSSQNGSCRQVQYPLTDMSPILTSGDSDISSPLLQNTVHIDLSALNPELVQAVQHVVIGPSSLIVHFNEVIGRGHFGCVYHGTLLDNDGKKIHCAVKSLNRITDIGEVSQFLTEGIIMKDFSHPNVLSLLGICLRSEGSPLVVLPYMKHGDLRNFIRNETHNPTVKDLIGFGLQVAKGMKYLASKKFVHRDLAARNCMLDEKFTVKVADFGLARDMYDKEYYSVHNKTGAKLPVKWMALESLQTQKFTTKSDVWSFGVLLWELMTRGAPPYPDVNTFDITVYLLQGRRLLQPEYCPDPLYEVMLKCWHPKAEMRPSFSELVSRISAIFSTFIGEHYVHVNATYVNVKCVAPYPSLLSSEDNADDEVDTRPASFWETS

Biological target: T1, c-Met (Homo sapiens, UniProt P08581)
T1 construct: is a human gastric carcinoma known to overexpress c-Met, which is constitutively active; host or cells: Snu5 human gastric carcinoma cells transduced with a 6xAP1-luciferase-PEST reporter (Snu5-AP1-Luc-Pest)
Experiment: Inhibition of c-Met activity in Snu5 gastric carcinoma cells (Snu5-AP1-Luc-Pest luciferase signal)
Assay type: cell-based
Details: luciferase signal (Steady-Glo), 6 hours incubation

SMILES	IC50 [nM]
CN(C)C1CCC(Oc2ccc(-n3nnnc3-c3cc(-c4cnn(C5CCOCC5)c4)cnc3N)c(F)c2F)CC1 (stereo not shown) [Compound 178]	≤ 500
CN(C)C1CCC(Oc2ccc(-n3nnnc3-c3cc(-c4cnn(C)c4)cnc3N)c(F)c2F)CC1 (stereo not shown) [Compound 177, 3-(1-(4-(4-(dimethylamino)cyclohexyloxy)-2,3-difluorophenyl)-1H-tetrazol-5-yl)-5-(1-methyl-1H-pyrazol-4-yl)pyridin-2-amine]	≤ 500
CNCCCOc1ccc(-n2nnnc2-c2cc(-c3cc(C)cs3)cnc2N)c(F)c1F [Compound 46]	≤ 500
CC(C)CCn1cc(-c2cnc(N)c(-c3nnnn3-c3ccc(OCCCCN4CCCC4)c(F)c3F)c2)cn1 [Compound 149]	≤ 500
CC(C)Cn1cc(-c2cnc(N)c(-c3nnnn3-c3ccc(OCCN(C)C)c(F)c3F)c2)cn1 [Compound 10]	≤ 500
CNCCCOc1ccc(-n2nnnc2-c2cc(-c3ccccc3)cnc2N)c(F)c1F [Compound 42]	≤ 500
Cn1cc(-c2cnc(N)c(-c3nnnn3-c3ccc(OC4CCCNC4)c(F)c3F)c2)cn1 (stereo not shown) [Compound 125]	≤ 500
Cn1cc(-c2cnc(N)c(-c3nnnn3-c3ccc(N4CCNCC4)c(F)c3F)c2)cn1 [Compound 97, 3-(1-(2,3-difluoro-4-(piperazin-1-yl)phenyl)-1H-tetrazol-5-yl)-5-(1-methyl-1H-pyrazol-4-yl)pyridin-2-amine]	≤ 500
Cn1cc(-c2cnc(N)c(-c3nnnn3-c3ccc(OCCN4CCOCC4)c(F)c3F)c2)cn1 [Compound 4]	≤ 500
CN(C)CCCCOc1ccc(-n2nnnc2-c2cc(-c3cnn(C4CCOCC4)c3)cnc2N)c(F)c1F [Compound 148]	≤ 500
CNCCCOc1ccc(-n2nnnc2-c2cc(-c3cnn(C)c3)cnc2N)c(F)c1F [Compound 32]	≤ 500
CN(C)CCCOc1ccc(-n2nnnc2-c2cc(-c3ccsc3)cnc2N)c(F)c1F [Compound 54]	≤ 500
CNCCCOc1ccc(-n2nnnc2-c2cc(-c3cc4ccccc4s3)cnc2N)c(F)c1F [Compound 44]	≤ 500
CC(C)CCn1cc(-c2cnc(N)c(-c3nnnn3-c3ccc(OCCCN(C)C)c(F)c3F)c2)cn1 [Compound 53]	≤ 500
CNCCCCOc1ccc(-n2nnnc2-c2cc(-c3cnn(CCC(C)C)c3)cnc2N)c(F)c1F [Compound 134]	≤ 500
CNCCCCOc1ccc(-n2nnnc2-c2cc(-c3cnn(C)c3)cnc2N)c(F)c1F [Compound 137, 3-(1-(4-(4-(methylamino)butoxy)-2,3-difluorophenyl)-1H-tetrazol-5-yl)-5-(1-methyl-1H-pyrazol-4-yl)pyridin-2-amine]	≤ 500
CN(C)CCCOc1ccc(-n2nnnc2-c2cc(-c3cnn(C)c3)cnc2N)c(F)c1F [Compound 47]	≤ 500
CCCn1cc(-c2cnc(N)c(-c3nnnn3-c3ccc(OCCCNC)c(F)c3F)c2)cn1 [Compound 34]	≤ 500
CC(C)CCn1cc(-c2cnc(N)c(-c3nnnn3-c3ccc(OCCN(C)C)c(F)c3F)c2)cn1 [Compound 8]	≤ 500
Nc1ncc(-c2cccs2)cc1-c1nnnn1-c1ccc(OCC2CCNCC2)c(F)c1F [Compound 114]	≤ 500
Nc1ncc(-c2cnn(C3CCOCC3)c2)cc1-c1nnnn1-c1ccc(OCCC2CCCN2)c(F)c1F (stereo not shown) [Compound 147]	≤ 500
Nc1ncc(-c2cnn(C3CCOCC3)c2)cc1-c1nnnn1-c1ccc(OCCCCN2CCCC2)c(F)c1F [Compound 176]	≤ 500
CNC1CCC(Oc2ccc(-n3nnnc3-c3cc(-c4cnn(C)c4)cnc3N)c(F)c2F)CC1 (stereo not shown) [Compound 131, 3-(1-(4-(4-(methylamino)cyclohexyloxy)-2,3-difluorophenyl)-1H-tetrazol-5-yl)-5-(1-methyl-1H-pyrazol-4-yl)pyridin-2-amine]	≤ 500
CC(C)CCn1cc(-c2cnc(N)c(-c3nnnn3-c3ccc(OCC4CCC(N(C)C)CC4)c(F)c3F)c2)cn1 (stereo not shown) [Compound 172]	≤ 500
CC(C)CCn1cc(-c2cnc(N)c(-c3nnnn3-c3ccc(OCCN4CCCC4)c(F)c3F)c2)cn1 [Compound 21]	≤ 500
